Laboratory results: publication PMC12155224, “Rare missense variants of the leukocyte common antigen related receptor (LAR) display reduced activity in transcellular adhesion and synapse formation” (Research Square, 2025)
No constants are given. Whether binding was seen depends on the method and setting. Some entries that bind do so weakly or less than the wild type. Tags and fused reporters may be left off the sequences shown.

Molecular target: T1, LAR FN1–4 P381S (human) (UniProt P10586)
T1 sequence (chain, RED-tris-NTA 2nd generation dye on the His tag): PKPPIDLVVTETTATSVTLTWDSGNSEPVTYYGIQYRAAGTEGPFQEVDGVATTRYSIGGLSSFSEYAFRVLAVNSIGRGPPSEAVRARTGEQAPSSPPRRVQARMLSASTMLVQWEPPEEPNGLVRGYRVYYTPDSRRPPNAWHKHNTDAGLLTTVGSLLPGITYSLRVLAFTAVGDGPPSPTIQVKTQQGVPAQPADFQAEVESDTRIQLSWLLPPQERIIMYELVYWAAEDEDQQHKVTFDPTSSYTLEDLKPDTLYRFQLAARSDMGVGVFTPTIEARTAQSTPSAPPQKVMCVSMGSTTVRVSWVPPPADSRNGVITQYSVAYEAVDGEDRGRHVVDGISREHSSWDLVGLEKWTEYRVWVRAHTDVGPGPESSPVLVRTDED
Test: MST; His-tagged LAR FN1–4 labelled with RED-tris-NTA, 100 nM; NGL-3 in 1:1 dilution series; 25 mM HEPES pH 7.5, 150 mM NaCl, 0.005 % Tween20; 1 h at RT; Monolith NT.115, medium MST power; MST on time 2.5 s; 1:1 KD model; both purified

binding: binds
B1: NGL-3 ECD (extracellular domain of Netrin-G ligand 3, Fc cleaved off) (domain or fragment, UniProt Q9NT99 36-576)
chain: AGGGGVAVTSAAGGGSPPATSCPVACSCSNQASRVICTRRDLAEVPASIPVNTRYLNLQENGIQVIRTDTFKHLRHLEILQLSKNLVRKIEVGAFNGLPSLNTLELFDNRLTTVPTQAFEYLSKLRELWLRNNPIESIPSYAFNRVPSLRRLDLGELKRLEYISEAAFEGLVNLRYLNLGMCNLKDIPNLTALVRLEELELSGNRLDLIRPGSFQGLTSLRKLWLMHAQVATIERNAFDDLKSLEELNLSHNNLMSLPHDLFTPLHRLERVHLNHNPWHCNCDVLWLSWWLKETVPSNTTCCARCHAPAGLKGRYIGELDQSHFTCYAPVIVEPPTDLNVTEGMAAELKCRTGTSMTSVNWLTPNGTLMTHGSYRVRISVLHDGTLNFTNVTVQDTGQYTCMVTNSAGNTTASATLNVSAVDPVAAGGTGSGGGGPGGSGGVGGGSGGYTYFTTVTVETLETQPGEEALQPRGTEKEPPGPTTDGVWGGGRPGDAAGPASSSTTAPAPRSSRPTEKAFTVPITDVTENALKDLDDVMKTTK
